PubChem BioAssay AID686943, Drosophila RNAi Screening Center, 2013
Aim: 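Fly genes whose loss alters ERK activation after insulin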 (primary screen). Cell system: Drosophila S2R+ haemocyte-like cells expressing YFP-tagged ERK (Rolled). Reagent: long dsRNA against Drosophila genes. Treatment: insulin stimulation versus unstimulated cells; dose and duration not given. Read-out: 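Antibody staining for doubly phosphorylated ERK divided by ERK-YFP signal, as plate z-scores, in insulin-treated and untreated cells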. Scale: replicate 1, z-score of dpERK with insulin and replicate 2, z-score of dpERK with insulin: higher = more active ERK per ERK-YFP after insulin; replicate 1, z-score of dpERK under basal conditions: higher = more basal active ERK per ERK-YFP.
In all, the deposit lists about 23,000 reagents; shown is a random part of those that have a named target and a result. 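Extra replicates exist only for a retested subset of genes; insulin dose and duration not given; both raised and lowered dpERK matter.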 Not all columns of the deposit are shown. Not stated in the record: the amount of reagent, the time to read-out.

gene | DRSC id | replicate 1, z-score of dpERK with insulin | replicate 2, z-score of dpERK with insulin | replicate 1, z-score of dpERK under basal conditions
kdn | DRSC18328 | 0.37 | 0.15 | 1.2
Fatp3 | DRSC04366 | -0.88 | -0.07 | -0.36
CG2975 | DRSC00556 | -0.49 | -0.49 | 0.93
spict | DRSC02157 | -0.09 | -0.95 | 0.64
CG4480 | DRSC02750 | -0.86 | -0.18 | -0.86
CG13639 | DRSC14638 | 0.46 | 0 | 0.75
CG7509 | DRSC08596 | 0.71 | 0.73 | 0.68
CG31122 | DRSC14787 | -4.83 | -4.22 | -0.1
CG31122 | DRSC16286 | 0.28 | 0.14 | 0.11
CG17030 | DRSC08503 | 0.41 | 0.33 | -0.03
CG10280 | DRSC12133 | 0.99 | -0.26 | 0.27
slam | DRSC03240 | 0.17 | -0.22 | 1.07

2 entries from above, showing only “replicate 1, z-score of dpERK with insulin”:
CG17030 [DRSC08503]: 0.41
CG10280 [DRSC12133]: 0.99

Continued.
gene | DRSC id | replicate 1, z-score of dpERK with insulin | replicate 2, z-score of dpERK with insulin | replicate 1, z-score of dpERK under basal conditions
CG6847 | DRSC19213 | -0.04 | -0.6 | 0.04
CG6847 | DRSC20009 | 0.5 | 0.68 | -0.86
SLO2 | DRSC06212 | -2.92 | -3.35 | -1.71
SLO2 | DRSC06214 | 0.53 | -0.22 | -0.76
SLO2 | DRSC06216 | -0.74 | -0.73 | -0.38
SLO2 | DRSC06218 | -0.59 | 0.57 | -0.21
SLO2 | DRSC06219 | -0.56 | -3.97 | -1.79
CG3040 | DRSC22486 | 0.17 | -2.59 | 0.9
CG43089 | DRSC08060 | 0.1 | 0.25 | -0.05
EbpII | DRSC04637 | 0.32 | 0.08 | 0.29
EbpII | DRSC22484 | -0.37 | 0.88 | 2.03
